This assay addresses T1, TGF-β1 receptor TGFBRII (rat (endogenous in neonatal rat cardiac fibroblasts)) (UniProt P38438).
T1 sequence: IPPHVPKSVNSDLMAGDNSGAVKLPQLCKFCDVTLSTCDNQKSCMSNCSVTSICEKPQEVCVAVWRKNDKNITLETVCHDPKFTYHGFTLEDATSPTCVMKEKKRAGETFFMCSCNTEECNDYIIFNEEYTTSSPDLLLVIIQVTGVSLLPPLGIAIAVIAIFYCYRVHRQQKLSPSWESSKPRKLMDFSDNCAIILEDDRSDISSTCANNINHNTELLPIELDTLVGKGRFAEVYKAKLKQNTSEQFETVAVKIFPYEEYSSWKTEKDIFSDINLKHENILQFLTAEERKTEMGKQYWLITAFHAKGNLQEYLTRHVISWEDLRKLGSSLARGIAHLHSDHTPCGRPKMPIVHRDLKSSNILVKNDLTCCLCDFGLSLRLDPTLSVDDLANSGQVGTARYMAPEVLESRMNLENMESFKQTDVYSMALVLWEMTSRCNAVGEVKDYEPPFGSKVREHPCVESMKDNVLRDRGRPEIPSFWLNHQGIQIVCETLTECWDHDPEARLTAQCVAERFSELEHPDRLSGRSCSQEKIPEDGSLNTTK
Put plainly: co-IP; endogenous proteins; NRCF lysate incubated overnight at 4 °C with protein A/G beads carrying mouse anti-TGFBRII (5 µg/mL); blots for EP4, TGFBRI and TGFBRII; cells untreated, or pretreated with or without grapiprant (1 µM, 30 min) and then treated with TGF-β1 (10 ng/mL, 3 h).

Amino acid sequences for entries named in this document (tags omitted).
UniProt P43114: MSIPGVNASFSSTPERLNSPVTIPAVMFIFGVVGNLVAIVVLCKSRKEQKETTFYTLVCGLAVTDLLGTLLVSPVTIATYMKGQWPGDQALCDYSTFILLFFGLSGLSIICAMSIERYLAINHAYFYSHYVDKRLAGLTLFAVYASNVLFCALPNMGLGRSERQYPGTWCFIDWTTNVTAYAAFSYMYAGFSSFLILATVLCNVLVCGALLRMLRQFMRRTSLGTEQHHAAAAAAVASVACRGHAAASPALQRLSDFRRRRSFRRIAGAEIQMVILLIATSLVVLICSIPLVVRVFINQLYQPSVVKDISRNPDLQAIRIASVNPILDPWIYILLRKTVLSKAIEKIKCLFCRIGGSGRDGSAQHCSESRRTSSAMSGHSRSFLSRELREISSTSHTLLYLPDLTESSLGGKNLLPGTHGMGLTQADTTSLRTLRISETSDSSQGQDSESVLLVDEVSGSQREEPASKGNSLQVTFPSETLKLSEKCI

Results are given in words; binding and its absence hold for the method and conditions named. In cells and extracts the contact can be indirect. Some binding calls cover weakened binding; strength is not graded here.

2 molecules from publication PMC11948031 can be followed below.

For the molecule “Prostaglandin E2 (PGE2) receptor EP4 (from UniProt P43114 1-488)”, the binding entry is “binds”.

B1: TGFBRI (receptor, UniProt P80204 30-501)
chain: LQCFCHLCTKDNFTCETDGLCFVSVTETTDKVIHNSMCIAEIDLIPRDRPFVCAPSSKTGAVTYCCNQDHCNKIELPTTGPFSEKQSAGLGPVELAAVIAGPVCFVCIALMLMVYICHNRTVIHHRVPNEEDPSLDRPFISEGTTLKDLIYDMTTSGSGSGLPLLVQRTIARTIVLQESIGKGRFGEVWRGKWRGEEVAVKIFSSREERSWFREAEIYQTVMLRHENILGFIAADNKDNGTWTQLWLVSDYHEHGSLFDYLNRYTVTVEGMIKLALSTASGLAHLHMEIVGTQGKPAIAHRDLKSKNILVKKNGTCCIADLGLAVRHDSATDTIDIAPNHRVGTKRYMAPEVLDDSINMKHFESFKRADIYAMGLVFWEIARRCSIGGIHEDYQLPYYDLVPSDPSVEEMRKVVCEQKLRPNIPNRWQSCEALRVMAKIMRECWYANGAARLTALRIKKTLSQLSQQEGIKM
On to B1, for which the binding result is “binds”.
